# In PubChem BioAssay AID540256 (National Center for Advancing Translational Sciences (NCATS), 2011):
# “And” between values parts separate entries of the source, which are not always exact repeats. Identical values can stand only once. The whole screen tested about 300,000 compounds, of which about 3,700 (1.2%) were called active. The shares of active, inactive and inconclusive entries below differ from those in the screen. Calls follow the shape of the full dose curve; tested in HEK293 cells. Potencies beside an inconclusive call are fits to weak or partial responses and may not hold up.
# Test: qHTS for Inhibitors of binding or entry into cells for Lassa Virus; also: nearly all actives have a fitted effect of over 50% in size
# Conditions: Lassa virus pseudotype entry inhibition, cell reporter; activity change, negative = inhibition: at 37.9 µM (top of the series) unless noted
# % is scaled to controls: 0 for no effect and ±100 for the full control effect; potency is read from the fitted curve at half-maximal effect.
SMILES,"activity change, negative = inhibition",Potency
Cc1ccc(C)c(OCC(=O)NCCNC(=O)COc2cc(C)ccc2C)c1,inactive: -1.31%,
C=CCn1c(SCc2cc(=O)n3ccsc3n2)nc2sc(C)c(C)c2c1=O,,"inconclusive: 29.1 µM [activator, single point]"
O=C(N/N=C/c1c(O)n(-c2ccccc2Cl)c(=O)c2ccccc12)c1cccnc1,inactive: 1.01% [at 46.1 µM],
Cc1nn(CC(=O)NCc2cccs2)c(=O)c2nn(-c3ccccc3)c(C)c12,inactive: 1.75% [at 46.1 µM],
Cc1cccc(N2C(=O)N(CC(=O)C(C)(C)C)c3ccccc3S2(=O)=O)c1C,inactive: -14.5% [at 46.1 µM],
CC(=O)c1c(C)[nH]c(C(=O)CSc2nnc(-c3ccccc3)o2)c1C,,"inconclusive: 35.5 µM [inhibitor, single point]"
Cc1ccc2nc(-c3ccncc3)c(NC3CCCCC3)n2c1,inactive: 1.56%,
CN(C)S(=O)(=O)N(CC(=O)NCCSCc1ccccc1)c1ccccc1,,"inconclusive: 4.47 µM [inhibitor, full curve, poor fit] and inconclusive: 35.5 µM [inhibitor, single point]"
CCN(CC)C(=O)c1cc(-c2ccc3c(c2)OCO3)on1,,"inconclusive: 8.91 µM [inhibitor, partial curve, poor fit]"
COc1ccccc1CNC(=O)COC(=O)c1n[nH]c2ccccc12,,"inconclusive: 11.2 µM [inhibitor, partial curve, poor fit]"
O=C1c2cccc(OCc3ccc(F)cc3)c2CCN1Cc1ccc(F)cc1,,"inconclusive: 7.94 µM [inhibitor, partial curve, poor fit]"
COc1ccc(N2CCN(C(=O)Cc3ccc(OC)c(OC)c3)CC2)cc1,,"inconclusive: 35.5 µM [inhibitor, single point]"
Cc1cccc(NC(=O)CSCC(=O)N(CCC(C)C)c2c(N)n(Cc3ccccc3)c(=O)[nH]c2=O)c1,,active: 10 µM
CCOC(=O)c1ccc(OCCOc2ccccc2C)cc1,,"inconclusive: 12.6 µM [activator, single point]"
Cc1cccc(C(=O)OCc2cc3ccccc3[nH]c2=O)c1,,"inconclusive: 8.91 µM [inhibitor, partial curve, poor fit]"
COCCN1CCN(c2cc(-c3ccccc3)nc3cc(-c4cccc(F)c4)nn23)CC1,,"inconclusive: 35.5 µM [inhibitor, single point]"
COc1ccc(NC(=O)CCN(c2ccc(OC)cc2)S(=O)(=O)c2ccc(C)c(C)c2)cc1,,"inconclusive: 3.98 µM [inhibitor, full curve]"
Cc1cnc(C(=O)OCC(=O)c2ccc[nH]2)cn1,,"inconclusive: 3.55 µM [activator, partial curve, poor fit]"
Cc1cc(C(=O)Nc2nc3c(s2)CCCC3)cs1,,"inconclusive: 11.6 µM [inhibitor, partial curve, poor fit]"
Cc1ccc(S(=O)(=O)NC2c3cccc4cccc(c34)C2Sc2nc(C)cc(C)n2)cc1 (centres undefined),,"inconclusive: 32.6 µM [inhibitor, single point]"
O=C(CNC(=O)c1ccccc1)NC1(C(=O)NC2CCCCC2)CCCCC1,,"inconclusive: 0.794 µM [inhibitor, single point]"
Cc1ccc2c(c1)-c1c(ssc1=S)C(C)(C)N2C(=O)c1ccco1,,"inconclusive: 23.1 µM [inhibitor, single point]"
COc1ccc2cc(C(=O)/C=C/c3cc(OC)c(OC)c(OC)c3)ccc2c1,inactive: -29.9% [at 46.1 µM],

SMILES,"activity change, negative = inhibition",Potency
CCc1ccc2nc(N(CCN(CC)CC)C(=O)c3ccco3)sc2c1,inactive: -4.48% [at 46.1 µM],
CC(C)(CNC(=O)c1ccc(NS(=O)(=O)c2ccc(Br)cc2)cc1)N1CCOCC1,inactive: -0.653%,
COC(=O)c1cn(C(=O)c2ccccc2Cl)c2ccccc12,,"inconclusive: 7.08 µM [inhibitor, partial curve, poor fit]"
O=Cc1c(OCc2ccccc2)ccc2ccccc12,inactive: -3.71%,
Cc1c(-c2csc(N)n2)c2ccccc2n1C,,"inconclusive: 8.91 µM [inhibitor, full curve, poor fit]"
COc1ccc(NC(=O)C(C)N2C(=O)c3ccccc3C2=O)cc1S(=O)(=O)N1CCOCC1 (centres undefined),inactive: -5.38% [at 46.1 µM],
Cc1cccc(-n2ncc(C(=O)N3CCN(c4ccc(Cl)cc4)CC3)c2C2CCN(C(=O)OC(C)(C)C)CC2)c1,,"inconclusive: 1.26 µM [inhibitor, partial curve, poor fit]"
COc1ccc(-c2ccc(Nc3ccc(S(=O)(=O)N4CCCC4)cc3)nn2)cc1OC,,"inconclusive: 29.1 µM [inhibitor, single point]"
O=C(COC(=O)C1CC(=O)N(c2nc(-c3ccccc3)cs2)C1)c1ccccc1 (centres undefined),,"inconclusive: 7.3 µM [inhibitor, full curve, poor fit]"
COc1ccc(C(=O)/C=C/c2ccc(OC3CSC3)cc2)cc1,,"inconclusive: 1.12 µM [inhibitor, partial curve, poor fit]"
Clc1cccc2sc(N3CCCC3)nc12,inactive: 1.03%,
COc1cccc(C2SCC(=O)Nc3c2c(C)nn3-c2ccc(C)c(Cl)c2)c1OC (centres undefined),,"inconclusive: 35.5 µM [activator, single point]"
O=c1c2c3c(sc2n2cnnc2n1-c1ccccc1)N(Cc1ccccc1)CCC3,inactive: 17.4%,
Cc1cc(C)nc(/N=C(\N)Nc2ccc(-c3ccccc3)cc2)n1,,"inconclusive: 20 µM [inhibitor, single point]"
CCn1c(=O)cc(SCC(=O)NCc2ccc(F)cc2Cl)c2ccccc21,inactive: -6.24% [at 46.1 µM],
CCOc1ccc(N2CC(NC(=O)C(=O)c3c[nH]c4ccccc34)CC2=O)cc1 (centres undefined),inactive: -6.84% [at 46.1 µM],
COc1ccc(C2NC(=O)N(C)C3=C2C(=O)N(c2cccc(Cl)c2)C3)cc1 (centres undefined),inactive: -27.4% [at 46.1 µM],
CC1=CC2=NC(=O)/C(=C\c3cccn3CCOc3ccccc3C)C(=N)N2O1,,"inconclusive: 20.6 µM [inhibitor, partial curve, poor fit]"
CCOC(=O)c1c(C)n(-c2ccc(C)cc2)c2c(C(C(C)=O)C(=O)O)c(Br)c(O)c(O)c12 (centres undefined),,"inconclusive: 0.112 µM [inhibitor, full curve, poor fit]"
CCc1ccc(Sc2cc(C(=O)NCc3cccc(OC)c3)c3ccccc3n2)cc1,,"inconclusive: 3.98 µM [inhibitor, partial curve]"
COC(=O)c1ccc(OCC2c3cc(OC)c(OC)cc3CCN2C(=O)Cc2ccc(OC)cc2)cc1 (centres undefined),,"inconclusive: 5.01 µM [inhibitor, partial curve]"
COc1c(Cl)cccc1-c1cn2ccc(C)cc2n1,,"inconclusive: 35.5 µM [inhibitor, single point]"
Cc1cc(Cl)ccc1Nc1ncccc1C(N)=O,,"inconclusive: 1.78 µM [activator, partial curve, poor fit]"

SMILES,"activity change, negative = inhibition",Potency
CCc1ccc(Sc2cc(C(=O)NCc3ccccc3OC)c3ccccc3n2)cc1,,"inconclusive: 15.8 µM [inhibitor, partial curve, poor fit]"
Oc1nc(Nc2ccc(F)cc2)sc1/C=C1\C=Nc2ccccc21,,"inconclusive: 1 µM [inhibitor, full curve, poor fit]"
C/C(=N\NC(=O)CSc1nc(C)cc(C)n1)c1ccc2c(c1)OCCO2,inactive: 12.2%,
CCC1(CC)NC(=O)N(CC(=O)N2N=C(c3ccc(Cl)cc3)CC2c2ccco2)C1=O (centres undefined),,"inconclusive: 22.4 µM [inhibitor, single point]"
COC(=O)CNc1c(-c2ccccc2)nc2ccc(Br)cn12,,"inconclusive: 8.2 µM [activator, partial curve, poor fit]"
O=C(Nc1ccn(Cc2ccc(Cl)cc2)n1)c1ccccc1,,"inconclusive: 3.16 µM [activator, single point]"
CC(C)(C)c1ccc(C(=O)OCCNC(=O)c2c(Cl)nc3ccccn23)cc1,,"inconclusive: 32.6 µM [inhibitor, single point]"
O=C(CCl)Nc1cccc(S(=O)(=O)N2CCCCCC2)c1,,active: 7.94 µM
Clc1cccc(/C=N/Nc2ncnc3ccccc23)c1,,"inconclusive: 10.3 µM [activator, partial curve]"
O=C(NCc1ccccc1)c1ccc(-c2ccc(F)cc2)o1,,active: 6.51 µM
CC(C)c1ccc(Nc2nccc(-c3cnn4ncccc34)n2)cc1,,active: 11.2 µM
N#Cc1c(-c2ccccc2)ccn(Cc2ccccc2Cl)c1=O,inactive: -18.8%,
CCOC(=O)c1ccccc1NC(=O)C1CCN(c2ncnc3c2nc2n3CCCCC2)CC1,inactive: 23.2% [at 46.1 µM],
Cc1ccc(OCC(=O)NC(=S)Nc2ccc(S(=O)(=O)Nc3cc(C)on3)cc2)c(Br)c1,inactive: 8.99%,
Fc1ccccc1/C=N/Nc1ncnc2nc[nH]c12,inactive: 16%,
c1ccc(OCc2nc3c4c(ncn3n2)-c2ccccc2CC42CCCC2)cc1,inactive: -1.56%,
CC(C)(C)c1ccc(NS(=O)(=O)c2ccc(N)cc2)cc1,,"inconclusive: 3.98 µM [inhibitor, full curve, poor fit]"
CCOc1ccc(C(=O)/C=C/c2cn(CC(O)CN3CCCCCC3)c3ccccc23)cc1 (centres undefined),,"inconclusive: 35.5 µM [inhibitor, single point]"
COc1ccc(OCC(=O)Nc2nnc(S(=O)(=O)N3CCc4ccccc43)s2)cc1,inactive: 3.42% [at 46.1 µM],
OC(CNCc1cccs1)c1ccccc1 (centres undefined),,"inconclusive: 0.199 µM [activator, full curve, poor fit]"
Cc1ccc(NC(=O)COC(=O)CCC2CCCC2)c(Br)c1,inactive: 20.6%,
Cc1cc(C)c(S(=O)(=O)Nc2ccc(-c3ccc(N4CCC(C)CC4)nn3)cc2)cc1C,,"inconclusive: 11.2 µM [activator, partial curve]"
CN1CCN(CC#CCn2c3ccccc3c3ccccc32)CC1,,"inconclusive: 7.3 µM [activator, partial curve, poor fit]"
